Measured data: PubChem BioAssay AID1224826 (NIAID, 2016)
Shown is a random part of about 17,000 reagents. About 1,110 of them (6.6%) were called active. 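Active means lowered or raised reporter signal; replicate intensities are raw and not normalised per plate.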 Reagents against one gene are numbered here. Some reagents were tested in more than one well and are listed for each. No sequences are given here.

- Screen: 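Genes that change LPS-induced Tnf promoter activity in mouse macrophages when knocked down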 (primary screen)
- Cells: RAW264.7 G9 macrophages from mouse bearing reporters for p65 (GFP) and the Tnf promoter (mCherry)
- Reagents: siRNA pool against mouse genes, 100 nM
- Timing: 16 h of LPS stimulation, after 2 days of siRNA transfection
- Treatment: bacterial lipopolysaccharide (Salmonella minnesota R595), 10 ng/ml
- Measurement: 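Nuclear mCherry signal of the Tnf promoter reporter measured by imaging after background removal, scaled to each plate median and turned into robust z-scores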
- Scale: Tnf reporter robust z-score: higher = stronger Tnf promoter reporter signal after LPS; Tnf reporter intensity: higher = stronger Tnf promoter reporter signal
- Rule for the call: 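a well counts as active at a score of -1.3 or below (Tlr4 knock-down control median) or above 3 (raised signal); controls and wells holding fewer than 50 cells are excluded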
- Meaning of the calls: active = Tnf reporter clearly lowered or raised; inactive = no clear change in Tnf reporter

| Target gene | reagent no. | Tnf reporter robust z-score | fewer than 50 cells in well | Tnf reporter intensity, replicate 1 | Tnf reporter intensity, replicate 2 | activity call |
| --- | --- | --- | --- | --- | --- | --- |
| Invs (inversin) | 1 | -0.47 | enough cells in well | 170 | 104 | inactive |
| Nop58 (NOP58 ribonucleoprotein) | 1 | 0.67 | enough cells in well | 259 | 160 | inactive |
| Rpl41 (ribosomal protein L41) | 1 | -0.83 | enough cells in well | 101 | 83.3 | inactive |
| Gas7 (growth arrest specific 7) | 1 | -0.24 | enough cells in well | 211 | 238 | inactive |
| Dexi (dexamethasone-induced transcript) | 1 | 0.67 | enough cells in well | 282 | 156 | inactive |
| Arhgap32 (Rho GTPase activating protein 32) | 1 | 0.35 | enough cells in well | 267 | 281 | inactive |
| Wscd1 (WSC domain containing 1) | 1 | 0.08 | enough cells in well | 204 | 222 | inactive |
| B430217B02Rik (retired record) | 1 | 0.32 | enough cells in well | 210 | 251 | inactive |
| Bptf (bromodomain PHD finger transcription factor) | 1 | -0.66 | enough cells in well | 185 | 172 | inactive |
| Gm4884 (predicted gene 4884) | 1 | -0.45 | enough cells in well | 183 | 53.8 | inactive |
| Fabp3 (fatty acid binding protein 3, muscle and heart) | 1 | -0.15 | enough cells in well | 211 | 226 | inactive |
| Vmn1r206 (vomeronasal 1 receptor 206) | 1 | 1.21 | enough cells in well | 136 | 151 | inactive |
| Retreg1 (reticulophagy regulator 1) | 1 | 0.09 | enough cells in well | 173 | 107 | inactive |
| Rtp4 (receptor transporter protein 4) | 1 | 0.02 | enough cells in well | 139 | 162 | inactive |
| Dlat (dihydrolipoamide S-acetyltransferase) | 1 | -0.66 | enough cells in well | 146 | 88.5 | inactive |
| Mat2a (methionine adenosyltransferase 2A) | 1 | -0.18 | enough cells in well | 188 | 130 | inactive |
| Fos (Fos proto-oncogene, AP-1 transcription factor subunit) | 1 | -1.08 | enough cells in well | 173 | 140 | inactive |
| Zfp629 (zinc finger protein 629) | 1 | -0.22 | enough cells in well | 144 | 198 | inactive |
| H4c8 (H4 clustered histone 8) | 1 | 0.1 | enough cells in well | 246 | 103 | inactive |
| Nop10 (NOP10 ribonucleoprotein) | 1 | -1.32 | enough cells in well | 121 | 69.5 | active |
| Mtnap1 (mitochondrial nucleoid associated protein 1) | 1 | -1 | enough cells in well | 104 | 136 | inactive |
| Capza3 (capping actin protein of muscle Z-line subunit alpha 3) | 1 | -1.69 | enough cells in well | 69.3 | 77.2 | active |
| Nrxn3 (neurexin III) | 1 | 0.23 | enough cells in well | 234 | 136 | inactive |
| Xxylt1 (xyloside xylosyltransferase 1) | 1 | -0.1 | enough cells in well | 152 | 226 | inactive |
| Dclk1 (doublecortin-like kinase 1) | 1 | -0.93 | enough cells in well | 137 | 107 | inactive |
| Mkrn1 (makorin, ring finger protein, 1) | 1 | -0.24 | enough cells in well | 198 | 103 | inactive |
| Cox4i1 (cytochrome c oxidase subunit 4I1) | 1 | -0.37 | enough cells in well | 205 | 109 | inactive |
| Ddx3y (DEAD box helicase 3, Y-linked) | 1 | – | fewer than 50 cells per well; well left out of calls | 73.5 | 151 | inactive |
| Galnt5 (polypeptide N-acetylgalactosaminyltransferase 5) | 1 | -1.98 | enough cells in well | 84.5 | 69.8 | active |
| Eno4 (enolase 4) | 1 | 1.25 | enough cells in well | 238 | 221 | inactive |
| Rsph1 (radial spoke head 1 homolog (Chlamydomonas)) | 1 | -1 | enough cells in well | 72.8 | 64.2 | inactive |
| Ccdc69 (coiled-coil domain containing 69) | 1 | -0.82 | enough cells in well | 145 | 116 | inactive |
| Ucp2 | 1 | -1.38 | enough cells in well | 110 | 138 | active |
| Ets1 (Ets proto-oncogene 1, transcription factor) | 1 | 1.67 | enough cells in well | 316 | 406 | inactive |
| Pcdha11 (protocadherin alpha 11) | 1 | 0.94 | enough cells in well | 211 | 160 | inactive |
| Tex2 (testis expressed gene 2) | 1 | 3.11 | enough cells in well | 295 | 144 | active |
| Iba57 (IBA57 iron-sulfur cluster assembly factor) | 1 | – | fewer than 50 cells per well; well left out of calls | 179 | 105 | inactive |
| Iba57 (IBA57 iron-sulfur cluster assembly factor) | 2 | 0.34 | enough cells in well | 190 | 172 | inactive |
| Cd80 (CD80 antigen) | 1 | -1.03 | enough cells in well | 159 | 137 | inactive |
| Icam4 (intercellular adhesion molecule 4) | 1 | -0.81 | enough cells in well | 123 | 107 | inactive |
| Mrps7 (mitchondrial ribosomal protein S7) | 1 | -0.52 | enough cells in well | 189 | 86.1 | inactive |
| Prg3 (proteoglycan 3) | 1 | -0.08 | enough cells in well | 229 | 195 | inactive |
| Or4b13 (olfactory receptor family 4 subfamily B member 13) | 1 | 1.77 | enough cells in well | 324 | 168 | inactive |
| Mmp10 (matrix metallopeptidase 10) | 1 | 0.4 | enough cells in well | 274 | 254 | inactive |
| Mageb18 (MAGE family member B18) | 1 | 0.11 | enough cells in well | 225 | 202 | inactive |
| Glod4 (glyoxalase domain containing 4) | 1 | -0.25 | enough cells in well | 228 | 40.4 | inactive |
| Psmd3 (proteasome (prosome, macropain) 26S subunit, non-ATPase, 3) | 1 | – | fewer than 50 cells per well; well left out of calls | 12.6 | 206 | inactive |
| Dzank1 (double zinc ribbon and ankyrin repeat domains 1) | 1 | 2.49 | enough cells in well | 427 | 139 | inactive |
| Scgb2b26 (secretoglobin, family 2B, member 26) | 1 | -0.19 | enough cells in well | 187 | 182 | inactive |
| Scgb2b26 (secretoglobin, family 2B, member 26) | 2 | 0.53 | enough cells in well | 111 | 194 | inactive |
| Tmbim7 (transmembrane BAX inhibitor motif containing 7) | 1 | – | fewer than 50 cells per well; well left out of calls | 171 | 58.3 | inactive |
| Th (tyrosine hydroxylase) | 1 | 0.4 | enough cells in well | 238 | 169 | inactive |
| Aff2 (AF4/FMR2 family, member 2) | 1 | -0.74 | enough cells in well | 223 | 150 | inactive |
| Gcfc2 (GC-rich sequence DNA binding factor 2) | 1 | -0.36 | enough cells in well | 148 | 147 | inactive |
| Adra1a (adrenergic receptor, alpha 1a) | 1 | -0.96 | enough cells in well | 166 | 78.3 | inactive |
| Adra1a (adrenergic receptor, alpha 1a) | 1 | -1.36 | enough cells in well | 94.9 | 198 | active |
| Cct6b (chaperonin containing TCP1 subunit 6B) | 1 | -0.08 | enough cells in well | 276 | 168 | inactive |
| Krtap4-13 (keratin associated protein 4-13) | 1 | – | fewer than 50 cells per well; well left out of calls | 104 | 78.6 | inactive |

Part of the list above, limited to “Tnf reporter intensity, replicate 2”.
Dzank1 (double zinc ribbon and ankyrin repeat domains 1): 139
Scgb2b26 (secretoglobin, family 2B, member 26) #1: 182
Scgb2b26 (secretoglobin, family 2B, member 26) #2: 194
Tmbim7 (transmembrane BAX inhibitor motif containing 7): 58.3
Th (tyrosine hydroxylase): 169
Aff2 (AF4/FMR2 family, member 2): 150
Gcfc2 (GC-rich sequence DNA binding factor 2): 147
